{"sequences": {"note": "Amino acid sequences for entries named in this document (tags omitted).", "UniProt Q9H6I2": "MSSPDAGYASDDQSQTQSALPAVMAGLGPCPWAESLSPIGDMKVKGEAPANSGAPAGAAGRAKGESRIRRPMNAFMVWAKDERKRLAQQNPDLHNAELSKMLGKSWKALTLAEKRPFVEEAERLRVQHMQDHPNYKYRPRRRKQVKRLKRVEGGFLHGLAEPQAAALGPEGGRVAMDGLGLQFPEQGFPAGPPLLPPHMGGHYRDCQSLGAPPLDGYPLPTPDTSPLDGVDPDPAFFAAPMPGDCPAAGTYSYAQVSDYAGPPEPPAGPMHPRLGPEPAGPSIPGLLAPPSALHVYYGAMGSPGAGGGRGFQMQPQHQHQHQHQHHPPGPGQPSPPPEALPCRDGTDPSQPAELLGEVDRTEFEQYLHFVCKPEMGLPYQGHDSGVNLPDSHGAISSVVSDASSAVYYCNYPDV", "UniProt P48431": "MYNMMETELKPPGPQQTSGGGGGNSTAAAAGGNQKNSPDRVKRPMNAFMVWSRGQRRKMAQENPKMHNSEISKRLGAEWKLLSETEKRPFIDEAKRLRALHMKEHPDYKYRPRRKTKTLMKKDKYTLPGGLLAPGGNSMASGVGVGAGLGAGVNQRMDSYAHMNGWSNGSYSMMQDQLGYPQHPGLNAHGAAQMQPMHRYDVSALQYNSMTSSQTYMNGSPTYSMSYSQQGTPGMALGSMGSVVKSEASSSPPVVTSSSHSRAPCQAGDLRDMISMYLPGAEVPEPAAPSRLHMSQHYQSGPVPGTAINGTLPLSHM", "UniProt Q01860": "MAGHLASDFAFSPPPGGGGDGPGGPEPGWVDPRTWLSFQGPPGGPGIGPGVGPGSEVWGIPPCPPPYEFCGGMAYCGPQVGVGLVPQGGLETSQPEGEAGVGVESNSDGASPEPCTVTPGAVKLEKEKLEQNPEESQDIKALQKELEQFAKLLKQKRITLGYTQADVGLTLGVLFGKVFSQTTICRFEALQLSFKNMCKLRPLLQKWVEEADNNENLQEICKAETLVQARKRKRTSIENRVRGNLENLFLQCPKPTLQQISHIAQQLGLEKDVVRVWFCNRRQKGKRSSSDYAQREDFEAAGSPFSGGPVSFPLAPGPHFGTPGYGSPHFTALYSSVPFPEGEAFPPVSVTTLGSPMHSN", "UniProt Q9H9S0": "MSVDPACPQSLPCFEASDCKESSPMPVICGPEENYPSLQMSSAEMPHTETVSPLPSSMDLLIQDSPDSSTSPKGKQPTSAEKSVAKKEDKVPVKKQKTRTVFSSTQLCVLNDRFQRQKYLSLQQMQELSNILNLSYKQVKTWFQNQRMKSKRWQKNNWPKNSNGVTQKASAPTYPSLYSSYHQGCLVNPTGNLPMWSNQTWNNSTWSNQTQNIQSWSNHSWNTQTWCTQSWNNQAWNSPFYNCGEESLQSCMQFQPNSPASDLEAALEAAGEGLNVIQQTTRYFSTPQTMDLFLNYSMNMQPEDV"}, "source": "paper doi:10.1101/643114", "key": {"[1]": {"target": "SOX17 (human (endogenous in TCam-2)) (UniProt Q9H6I2)", "experiment": "co-IP"}, "[2]": {"target": "SOX2 (human (endogenous in 2102EP)) (UniProt P48431)", "experiment": "co-IP"}}, "note": "These are yes or no findings as the source states them, for the method shown. Binding seen in cells or lysates may run through a third protein. Some entries that bind do so weakly or less than the wild type."}
{"substance": "OCT4 (TCam-2 cells) (from UniProt Q01860 1-360)", "values": [{"measurement": "binding", "setting": "[1]", "value": "binds"}]}
{"substance": "NANOG (from UniProt Q9H9S0 1-305)", "values": [{"measurement": "binding", "setting": "[1]", "value": "no binding"}]}
{"substance": "OCT4 (2102EP cells) (from UniProt Q01860 1-360)", "values": [{"measurement": "binding", "setting": "[2]", "value": "binds"}]}
